Reference: publication PMC6626598
Results are given in words; binding and its absence hold for the method and conditions named. In cells and extracts the contact can be indirect.

By UniProt entry, the sequences of proteins in these tests, tags left out. Where a name states a change or a piece, a line headed by the entry shows the natural chain unless it says otherwise.
UniProt O95835: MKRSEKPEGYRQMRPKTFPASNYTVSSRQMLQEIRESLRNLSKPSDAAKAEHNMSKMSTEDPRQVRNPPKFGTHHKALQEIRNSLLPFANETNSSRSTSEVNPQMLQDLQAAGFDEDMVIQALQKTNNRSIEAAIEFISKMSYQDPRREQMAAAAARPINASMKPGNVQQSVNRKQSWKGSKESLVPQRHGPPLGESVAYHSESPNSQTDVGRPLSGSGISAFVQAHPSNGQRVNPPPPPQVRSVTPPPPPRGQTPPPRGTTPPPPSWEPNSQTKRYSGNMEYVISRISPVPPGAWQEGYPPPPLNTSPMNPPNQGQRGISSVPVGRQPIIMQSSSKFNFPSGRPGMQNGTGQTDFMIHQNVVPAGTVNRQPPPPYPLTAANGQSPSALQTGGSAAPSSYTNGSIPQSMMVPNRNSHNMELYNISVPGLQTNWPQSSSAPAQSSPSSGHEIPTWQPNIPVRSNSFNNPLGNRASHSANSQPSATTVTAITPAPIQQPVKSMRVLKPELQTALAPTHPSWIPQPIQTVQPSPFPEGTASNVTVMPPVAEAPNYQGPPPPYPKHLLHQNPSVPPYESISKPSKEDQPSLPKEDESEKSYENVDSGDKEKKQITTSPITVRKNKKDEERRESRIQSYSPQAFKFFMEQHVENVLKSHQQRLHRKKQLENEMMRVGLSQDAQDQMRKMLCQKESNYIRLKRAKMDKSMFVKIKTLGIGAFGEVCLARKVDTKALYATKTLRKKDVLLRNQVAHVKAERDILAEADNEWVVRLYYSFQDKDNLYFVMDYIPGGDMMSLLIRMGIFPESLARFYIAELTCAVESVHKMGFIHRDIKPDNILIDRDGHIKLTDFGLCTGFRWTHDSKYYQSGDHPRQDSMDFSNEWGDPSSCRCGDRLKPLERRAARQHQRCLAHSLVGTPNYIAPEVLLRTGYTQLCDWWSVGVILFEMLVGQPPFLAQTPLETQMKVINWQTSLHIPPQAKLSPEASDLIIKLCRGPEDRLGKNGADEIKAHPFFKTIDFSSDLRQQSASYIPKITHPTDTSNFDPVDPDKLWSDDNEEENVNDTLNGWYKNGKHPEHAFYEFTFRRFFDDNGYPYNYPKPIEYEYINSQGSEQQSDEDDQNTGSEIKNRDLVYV

Assays:
GST-LATS1 K860R = GST-LATS1 K860R (UniProt O95835); assay: pull-down; HERC4 co-expressed with GST-LATS1 constructs in MCF-7 cells; GST-tagged bait on GST beads (Pierce GST Protein Interaction Pull-Down Kit), prey sample at 4 °C for at least 1 h; Western blot
GST-LATS1 K1005R = GST-LATS1 K1005R (UniProt O95835); assay: as above

B1: HERC4 (expressed from a vector with human HERC4 cDNA) (enzyme, UniProt Q5GLZ8 1-1057)
chain: MLCWGNASFGQLGLGGIDEEIVLEPRKSDFFINKRVRDVGCGLRHTVFVLDDGTVYTCGCNDLGQLGHEKSRKKPEQVVALDAQNIVAVSCGEAHTLALNDKGQVYAWGLDSDGQLGLVGSEECIRVPRNIKSLSDIQIVQVACGYYHSLALSKASEVFCWGQNKYGQLGLGTDCKKQTSPQLLKSLLGIPFMQVAAGGAHSFVLTLSGAIFGWGRNKFGQLGLNDENDRYVPNLLKSLRSQKIVYICCGEDHTAALTKEGGVFTFGAGGYGQLGHNSTSHEINPRKVFELMGSIVTEIACGRQHTSAFVPSSGRIYSFGLGGNGQLGTGSTSNRKSPFTVKGNWYPYNGQCLPDIDSEEYFCVKRIFSGGDQSFSHYSSPQNCGPPDDFRCPNPTKQIWTVNEALIQKWLSYPSGRFPVEIANEIDGTFSSSGCLNGSFLAVSNDDHYRTGTRFSGVDMNAARLLFHKLIQPDHPQISQQVAASLEKNLIPKLTSSLPDVEALRFYLTLPECPLMSDSNNFTTIAIPFGTALVNLEKAPLKVLENWWSVLEPPLFLKIVELFKEVVVHLLKLYKIGIPPSERRIFNSFLHTALKVLEILHRVNEKMGQIIQYDKFYIHEVQELIDIRNDYINWVQQQAYGMDVNHGLTELADIPVTICTYPFVFDAQAKTTLLQTDAVLQMQMAIDQAHRQNVSSLFLPVIESVNPCLILVVRRENIVGDAMEVLRKTKNIDYKKPLKVIFVGEDAVDAGGVRKEFFLLIMRELLDPKYGMFRYYEDSRLIWFSDKTFEDSDLFHLIGVICGLAIYNCTIVDLHFPLALYKKLLKKKPSLDDLKELMPDVGRSMQQLLDYPEDDIEETFCLNFTITVENFGATEVKELVLNGADTAVNKQNRQEFVDAYVDYIFNKSVASLFDAFHAGFHKVCGGKVLLLFQPNELQAMVIGNTNYDWKELEKNTEYKGEYWAEHPTIKIFWEVFHELPLEKKKQFLLFLTGSDRIPILGMKSLKLVIQSTGGGEEYLPVSHTCFNLLDLPKYTEKETLRSKLIQAIDHNEGFSLI
- binding (GST-LATS1 K860R): no binding
- binding (GST-LATS1 K1005R): no binding
